Reference: patent publication US20150218277A1
No constants are given. Whether binding was seen depends on the method and setting. Some entries that bind do so weakly or less than the wild type.

Amino acid sequences for entries named in this document (tags omitted).
UniProt P46633: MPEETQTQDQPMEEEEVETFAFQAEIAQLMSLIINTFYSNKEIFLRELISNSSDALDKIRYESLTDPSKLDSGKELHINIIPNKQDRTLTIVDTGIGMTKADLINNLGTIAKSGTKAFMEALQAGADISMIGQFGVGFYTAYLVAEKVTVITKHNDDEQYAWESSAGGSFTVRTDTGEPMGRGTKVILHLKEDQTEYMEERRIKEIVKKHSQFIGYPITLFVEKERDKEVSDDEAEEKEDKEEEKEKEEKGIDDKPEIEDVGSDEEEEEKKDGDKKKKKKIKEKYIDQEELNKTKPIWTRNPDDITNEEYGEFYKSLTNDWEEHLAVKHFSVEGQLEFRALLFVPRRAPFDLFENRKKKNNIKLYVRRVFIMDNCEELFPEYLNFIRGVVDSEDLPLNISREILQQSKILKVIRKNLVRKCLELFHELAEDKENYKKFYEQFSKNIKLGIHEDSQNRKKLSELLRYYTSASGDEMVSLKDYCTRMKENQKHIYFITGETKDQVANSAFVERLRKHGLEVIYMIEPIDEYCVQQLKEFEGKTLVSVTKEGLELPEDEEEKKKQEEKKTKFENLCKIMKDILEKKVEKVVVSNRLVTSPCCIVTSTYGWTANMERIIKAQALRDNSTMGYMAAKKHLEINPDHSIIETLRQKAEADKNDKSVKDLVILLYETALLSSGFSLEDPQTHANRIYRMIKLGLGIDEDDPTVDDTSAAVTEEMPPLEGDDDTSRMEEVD

Assays:
[1] = target: HSP90 endogenous to CHO cells (Hamster) (UniProt P46633); assay: mutant expressed in CHO cells; HSP90 immunoprecipitation, immunoblot for EGFR
[2] = target: HSP90 endogenous to CHO cells (Hamster) (UniProt P46633); assay: HSP90 immunoprecipitation from transfected CHO cells, legend of FIG. 1c
[3] = target: HSP90 endogenous to CHO cells (Hamster) (UniProt P46633); assay: full length EGFR expressed in ErbB2-negative CHO cells; HSP90 immunoprecipitation, immunoblot for EGFR

| Substance | binding [1] | binding [2] | binding [3] |
| --- | --- | --- | --- |
| D770G-EGFR (from UniProt P00533 25-1210) (receptor) | binds |  |  |
| DN770-771AA EGFR (from UniProt P00533 25-1210) (receptor) | binds |  |  |
| P772G-EGFR (from UniProt P00533 25-1210) (receptor) | binds |  |  |
| S768A-EGFR (from UniProt P00533 25-1210) (receptor) | binds |  |  |
| S768D-EGFR (from UniProt P00533 25-1210) (receptor) | binds |  |  |
| S768I-EGFR (from UniProt P00533 25-1210) (receptor) | binds |  |  |
| WT-EGFR construct (full length EGFR) expressed in CHO cells (from UniProt P00533 25-1210) (receptor) |  | binds | binds |
